{"source": "PubChem BioAssay AID504774 (Drosophila RNAi Screening Center, 2011)", "assay": "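Genes required for cells to withstand methyl methanesulphonate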 (primary screen)", "cells": "Drosophila Kc167 cells", "reagent": "long dsRNA against Drosophila genes, about 0.25 µg dsRNA per well", "duration": "about 6 days: 3 days knock-down, then 3 days with or without MMS", "conditions": "methyl methanesulphonate 0.004% (w/v) for 3 days after knock-down", "detection": "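Viability in wells given MMS, read as ATP luminescence, normalised by quantiles plate by plate and averaged across replicates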", "scale": "mean viability with MMS: higher = more surviving cells after MMS", "note": "In all, the deposit lists about 23,000 reagents; this is a random part of those with a known target gene and a result. 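Values are quantile-normalised luminescence on an arbitrary scale; higher means more cells surviving MMS.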 A plus sign joins genes that one reagent is predicted to hit. Further read-outs or replicates are left out here."}
{"gene":"CG4887","amplicon":"DRSC00670","mean viability with MMS":3.62e6}
{"gene":"CG4887","amplicon":"DRSC21563","mean viability with MMS":3.62e6}
{"gene":"RpS4 (Ribosomal protein S4)","amplicon":"DRSC11272","mean viability with MMS":3.03e6}
{"gene":"CG2765","amplicon":"DRSC04315","mean viability with MMS":3.47e6}
{"gene":"Ser8","amplicon":"DRSC06891","mean viability with MMS":3.58e6}
{"gene":"CG16825","amplicon":"DRSC02526","mean viability with MMS":3.45e6}
{"gene":"levy","amplicon":"DRSC04289","mean viability with MMS":3.67e6}
{"gene":"CG12253","amplicon":"DRSC02153","mean viability with MMS":3.69e6}
{"gene":"Cul2 (Cullin 2)","amplicon":"DRSC03710","mean viability with MMS":3.78e6}
{"gene":"Src42A (Src oncogene at 42A)","amplicon":"DRSC04915","mean viability with MMS":3.52e6}
{"gene":"ZnT33D (Zinc transporter 33D)","amplicon":"DRSC02591","mean viability with MMS":3.72e6}
{"gene":"CG8314","amplicon":"DRSC07144","mean viability with MMS":3.70e6}
{"gene":"CG13738","amplicon":"DRSC10065","mean viability with MMS":3.25e6}
{"gene":"Stlk (Ste20-like kinase)","amplicon":"DRSC22687","mean viability with MMS":3.60e6}
{"gene":"CG1571","amplicon":"DRSC18068","mean viability with MMS":3.74e6}
{"gene":"CG13067","amplicon":"DRSC09950","mean viability with MMS":3.55e6}
{"gene":"Psn (Presenilin)","amplicon":"DRSC11743","mean viability with MMS":3.69e6}
{"gene":"GstS1 (Glutathione S transferase S1)","amplicon":"DRSC07436","mean viability with MMS":3.60e6}
{"gene":"CG42560 + CG42559","amplicon":"DRSC21873","mean viability with MMS":3.61e6}
{"gene":"CG12011","amplicon":"DRSC08219","mean viability with MMS":3.61e6}
{"gene":"PHDP (Putative homeodomain protein)","amplicon":"DRSC04635","mean viability with MMS":3.55e6}
{"gene":"phr6-4 ((6-4)-photolyase)","amplicon":"DRSC03589","mean viability with MMS":3.59e6}
{"gene":"unc (uncoordinated)","amplicon":"DRSC20511","mean viability with MMS":3.42e6}
{"gene":"CG32040","amplicon":"DRSC08981","mean viability with MMS":3.49e6}
{"gene":"CG32040","amplicon":"DRSC22459","mean viability with MMS":3.49e6}
{"gene":"CG13250","amplicon":"DRSC11698","mean viability with MMS":3.71e6}
{"gene":"CG32102","amplicon":"DRSC22015","mean viability with MMS":3.62e6}
{"gene":"hth (homothorax)","amplicon":"DRSC16967","mean viability with MMS":3.64e6}
{"gene":"CG15740","amplicon":"DRSC19706","mean viability with MMS":2.92e6}
{"gene":"CG15740","amplicon":"DRSC23079","mean viability with MMS":3.58e6}
{"gene":"Wdr37 (WD repeat domain 37)","amplicon":"DRSC14500","mean viability with MMS":3.49e6}
{"gene":"CG30377","amplicon":"DRSC06477","mean viability with MMS":3.68e6}
{"gene":"CG30377","amplicon":"DRSC06799","mean viability with MMS":3.31e6}
{"gene":"mei-9 (meiotic 9)","amplicon":"DRSC18792","mean viability with MMS":3.44e6}
{"gene":"mip40 (Myb-interacting protein 40)","amplicon":"DRSC06541","mean viability with MMS":3.73e6}
{"gene":"Gba1a (Glucocerebrosidase 1a)","amplicon":"DRSC21494","mean viability with MMS":3.72e6}
{"gene":"CG42795","amplicon":"DRSC12772","mean viability with MMS":3.56e6}
{"gene":"CG42795","amplicon":"DRSC15533","mean viability with MMS":3.49e6}
{"gene":"CG3662","amplicon":"DRSC00626","mean viability with MMS":3.76e6}
{"gene":"crn (crooked neck)","amplicon":"DRSC18184","mean viability with MMS":2.89e6}
{"gene":"crn (crooked neck)","amplicon":"DRSC18185","mean viability with MMS":3.19e6}
{"gene":"crn (crooked neck)","amplicon":"DRSC18755","mean viability with MMS":2.88e6}
{"gene":"CG8197","amplicon":"DRSC07105","mean viability with MMS":3.59e6}
{"gene":"CG1824","amplicon":"DRSC19796","mean viability with MMS":3.47e6}
{"gene":"CG32986","amplicon":"DRSC02509","mean viability with MMS":3.60e6}

Sorted by “mean viability with MMS” (ascending): 6 of the entries above.
{"gene":"unc (uncoordinated)","amplicon":"DRSC20511","mean viability with MMS":3.42e6}
{"gene":"CG32040","amplicon":"DRSC08981","mean viability with MMS":3.49e6}
{"gene":"CG32040","amplicon":"DRSC22459","mean viability with MMS":3.49e6}
{"gene":"phr6-4 ((6-4)-photolyase)","amplicon":"DRSC03589","mean viability with MMS":3.59e6}
{"gene":"CG32102","amplicon":"DRSC22015","mean viability with MMS":3.62e6}
{"gene":"CG13250","amplicon":"DRSC11698","mean viability with MMS":3.71e6}
